Data from article PMC9106352.
Results are given in words; binding and its absence hold for the method and conditions named. In cells and extracts the contact can be indirect. Some binding calls cover weakened binding; strength is not graded here.

Sequences of proteins named here, by UniProt entry; tags and fusion partners are left off. Residues count along the entry.
UniProt Q03265, residues 44-553: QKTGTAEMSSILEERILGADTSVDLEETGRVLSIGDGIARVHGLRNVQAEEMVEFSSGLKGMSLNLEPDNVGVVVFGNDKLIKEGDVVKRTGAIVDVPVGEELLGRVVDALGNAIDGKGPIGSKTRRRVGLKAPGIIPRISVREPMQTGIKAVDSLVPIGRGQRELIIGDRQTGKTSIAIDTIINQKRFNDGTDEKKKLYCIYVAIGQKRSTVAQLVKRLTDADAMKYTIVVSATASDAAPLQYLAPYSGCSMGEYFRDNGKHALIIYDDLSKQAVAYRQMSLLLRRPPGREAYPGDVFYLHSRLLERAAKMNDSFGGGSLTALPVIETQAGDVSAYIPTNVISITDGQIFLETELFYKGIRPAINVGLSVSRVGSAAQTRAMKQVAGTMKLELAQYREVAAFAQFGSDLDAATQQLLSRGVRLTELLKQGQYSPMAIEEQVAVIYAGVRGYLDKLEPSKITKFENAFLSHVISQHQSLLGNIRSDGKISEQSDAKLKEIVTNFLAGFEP
UniProt P56480, residues 47-529: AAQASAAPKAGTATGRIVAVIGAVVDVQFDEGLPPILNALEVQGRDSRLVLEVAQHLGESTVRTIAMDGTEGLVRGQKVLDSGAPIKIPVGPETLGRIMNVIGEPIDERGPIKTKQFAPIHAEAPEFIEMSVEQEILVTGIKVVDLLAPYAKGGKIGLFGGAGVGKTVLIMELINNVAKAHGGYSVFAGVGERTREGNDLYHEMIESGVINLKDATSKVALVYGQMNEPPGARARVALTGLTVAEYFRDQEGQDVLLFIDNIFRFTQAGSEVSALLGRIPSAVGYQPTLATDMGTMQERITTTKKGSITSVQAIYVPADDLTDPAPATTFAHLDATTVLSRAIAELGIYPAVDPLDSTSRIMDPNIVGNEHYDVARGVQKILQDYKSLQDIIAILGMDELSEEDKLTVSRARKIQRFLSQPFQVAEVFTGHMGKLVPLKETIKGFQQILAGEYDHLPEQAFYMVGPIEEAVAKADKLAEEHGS

What was measured:
Experiment in all cases: cross-linking; isobaric quantitative PIR cross-linker GG-BDP-NHP (10 mM) added to minced heart tissue of 5 TAC and 5 sham-operated mice in 170 mM Na2HPO4 pH 8.0, 30 min, room temperature; mitochondria then isolated, digested, cross-linked peptides enriched on avidin and identified by LC-MS/MS; links mapped on PDB 6j5k
[1] = target: FoF1-ATP synthase α subunit (ATPA) (mouse (endogenous in mouse heart)) (UniProt Q03265)
[2] = target: FoF1-ATP synthase β subunit (ATPB) (mouse (endogenous in mouse heart)) (UniProt P56480)
[3] = target: ATPase inhibitory factor 1 (ATPIF1) (mouse (endogenous in mouse heart)) (UniProt O35143)

Measured: binding

B1: ATPase inhibitory factor 1 (ATPIF1) (protein, UniProt O35143 26-106)
chain: VSDSSDSMDTGAGSIREAGGAFGKREKAEEDRYFREKTKEQLAALRKHHEDEIDHHSKEIERLQKQIERHKKKIQQLKNNH
binds: [1] | [2] | [3]
